Laboratory results from paper PMC9018756.
Results are given in words; binding and its absence hold for the method and conditions named. In cells and extracts the contact can be indirect. Some results given as binding are weak or reduced against the parent protein; the word gives no strength.

Amino acid sequences for entries named in this document (tags omitted).
UniProt P46935: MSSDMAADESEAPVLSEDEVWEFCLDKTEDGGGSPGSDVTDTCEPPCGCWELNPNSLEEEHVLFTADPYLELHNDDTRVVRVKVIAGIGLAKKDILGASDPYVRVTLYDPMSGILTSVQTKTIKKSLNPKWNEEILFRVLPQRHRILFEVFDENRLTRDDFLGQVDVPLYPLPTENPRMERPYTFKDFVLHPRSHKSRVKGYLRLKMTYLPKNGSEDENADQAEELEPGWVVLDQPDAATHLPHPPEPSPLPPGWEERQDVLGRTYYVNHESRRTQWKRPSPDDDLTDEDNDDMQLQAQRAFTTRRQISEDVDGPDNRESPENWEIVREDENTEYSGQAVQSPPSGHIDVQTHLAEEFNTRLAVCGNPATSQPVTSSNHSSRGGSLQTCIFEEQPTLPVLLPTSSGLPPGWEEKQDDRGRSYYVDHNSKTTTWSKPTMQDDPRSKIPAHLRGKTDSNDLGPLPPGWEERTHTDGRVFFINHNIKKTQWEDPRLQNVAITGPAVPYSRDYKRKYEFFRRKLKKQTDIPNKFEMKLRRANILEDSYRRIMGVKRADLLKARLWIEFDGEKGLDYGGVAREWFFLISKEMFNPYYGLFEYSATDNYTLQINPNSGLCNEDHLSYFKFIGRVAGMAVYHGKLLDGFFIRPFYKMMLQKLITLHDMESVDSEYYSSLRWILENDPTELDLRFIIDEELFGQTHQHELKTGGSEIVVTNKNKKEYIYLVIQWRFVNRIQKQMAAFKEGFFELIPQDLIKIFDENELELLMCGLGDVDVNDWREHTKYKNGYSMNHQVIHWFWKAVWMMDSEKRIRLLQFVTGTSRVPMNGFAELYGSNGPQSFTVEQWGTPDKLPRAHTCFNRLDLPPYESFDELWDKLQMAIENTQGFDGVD
UniProt P62962: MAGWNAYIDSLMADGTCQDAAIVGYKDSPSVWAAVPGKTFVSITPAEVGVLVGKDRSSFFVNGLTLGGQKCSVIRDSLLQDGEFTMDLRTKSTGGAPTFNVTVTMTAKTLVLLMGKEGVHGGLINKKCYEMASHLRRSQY

Target: Flag-tagged NEDD4 (UniProt P46935)
Experiment: co-IP; 293T cells transfected with Flag-Nedd4 and GFP-Pfn1; NP-40 lysis buffer; anti-Flag on protein G-Sepharose, 2 h at 4 °C, compared to control mouse IgG; western blot

GFP-PFN1 (from UniProt P62962 1-140)
binding: binds
